Among all 1,200 compounds or so, fewer than 10 were called active.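 How the source made its calls: active means inhibition reaching a set limit at one or more tested concentrations; inactive means inhibition under that limit at every dose.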 The list shows a part of the results. Results with a measured potency or affinity are listed apart.

The nature of this assay: yeast RAM network inhibitors, dose response, S. cerevisiae (AID 1307).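 Further: 0% = DMSO vehicle wells and 100% = 10 µM 1-NA-PP1 control; higher inhibition means more yeast growth since RAM block rescues cells from 5-FOA.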 Particulars: S. cerevisiae RAM network URA3 reporter, 5-FOA growth OD615, active compounds read high, yeast express analog-sensitive mutant Cbk1 kinase; at 100 µM unless noted.
For `Cc1ccc(C(=O)OCC(=O)Nc2cc(S(=O)(=O)N3CCOCC3)ccc2C)cc1`, the max inhibition is inactive: 2.57% [at 0.782 µM].
`CCOc1ccc(-c2c(C(=O)N/N=C/c3ccc(OC)cc3)nnn2-c2nonc2N)cc1`: the max inhibition was inactive: 2.43% [at 50 µM].
As to `COc1ccc(/C=C2\SC(=S)N(CC(=O)OCC(=O)Nc3ccc(C)cc3Cl)C2=O)cc1`, the max inhibition was inactive: 9.7%.
As for `CCn1c(=O)c(C(=O)NCCc2ccccc2)c(O)c2ccccc21`, the max inhibition was inactive: 2.35%.
`C=CCN1C(=O)/C(=C\c2cc(Br)c(OCc3ccccn3)c(OC)c2)SC1=S`: the max inhibition is inactive: 2.45% [at 12.5 µM].
With `CCN(CC)S(=O)(=O)c1cccc(NC(=O)CCSc2ccc(Cl)cc2)c1` the figure was inactive: 4.46% [at 6.25 µM]; with `COc1cccc(CN(Cc2ccco2)S(=O)(=O)c2ccc(S(=O)(=O)NCc3ccccc3)cc2)c1OC`, inactive: 3.28% [at 50 µM]; with `CCCCOc1ccccc1NC(=O)c1scc2c1OCCO2`, inactive: 5.83% [at 50 µM].
Regarding `COc1ccc2c(c1)CCc1c(C(=O)N3CCc4ccccc4C3)noc1-2`, the max inhibition was inactive: 1.93% [at 12.5 µM].
`O=C(/C(=N/N=C/c1ccc(O)c(O)c1O)c1ccccc1)c1ccccc1`: the max inhibition was inactive: 1.69% [at 12.5 µM].
The same measure for `CC(=O)Oc1cccc(N2C(=O)c3ccc(C(=O)Nc4c[nH]c(=O)[nH]c4=O)cc3C2=O)c1`: inactive: 5.04%; for `CCNc1ccc2noc3c2c1C(=O)c1ccccc1-3`: inactive: 14.9%.
In the case of `O=C(O)COc1ccc(/C=N/n2c(COc3ccccc3)nc3ccccc3c2=O)cc1`, the max inhibition was inactive: 7.18%.
The same measure for `CSc1ccccc1-c1nnc(-c2ccc(Cl)cc2)o1`: inactive: 3.84% [at 50 µM].
The same measure for `O=C(CCC(=O)OCc1cccc(C(=O)Oc2ccccc2)c1)Nc1cccc2ccccc12`: inactive: 4.5% [setting not given]; for `N#Cc1ccc(-c2cccnc2)nc1SCc1ccc(Cl)c(Cl)c1`: inactive: 11.2%.
Consider `COC(=O)c1ccc(C2C(Oc3ccccc3C)C(=O)N2CCc2ccc(OC)c(OC)c2)cc1` (stereo not drawn), for which the max inhibition is inactive: 2.83%.
Take `CCC/C=C(\CCC)C(NS(=O)(=O)c1cccc2cccnc12)c1ccc(C(=O)OC)cc1` (stereo not drawn): the max inhibition is inactive: 3.88% [at 50 µM].
The same measure for `Cc1ccc(C(=O)/C=C/c2c(C)nn(-c3ccccc3)c2Cl)cc1`: inactive: 4.92%.
For the molecule `O=C(CSc1ccccc1)N(c1ccc(Br)cc1)c1nccs1`, the max inhibition was inactive: 3.88% [at 3.125 µM].
The same measure for `COc1cc(CC(NC(C)=O)C(=O)NC2CCN(c3c(Cc4ccccc4)c(C)nc4ncnn34)CC2)cc(OC)c1` (stereo not drawn): inactive: 3.02% [at 25 µM]; for `CCc1c(C#N)c(SCc2c(C)noc2C)nc2c1C(=O)CC(C)(C)C2`: inactive: 7.41% [at 0.196 µM]; for `CCOC(=O)c1cc(C#N)c(Oc2cccc(C(F)(F)F)c2)nc1-c1ccccc1`: inactive: 2.36%.
The same measure for `CC(CCc1ccco1)NC(=O)c1cccc2c1C(=O)N(C1CCCCC1)C2` (stereo not drawn): inactive: 1.69% [at 12.5 µM]; for `COc1ccccc1N(C)S(=O)(=O)c1ccc(C(=O)OCC(=O)NCCC2=CCCCC2)cc1`: inactive: 3.89% [at 50 µM]; for `CC1CCCCN1S(=O)(=O)c1ccc(S(=O)(=O)N(Cc2ccccc2)Cc2ccco2)cc1` (stereo not drawn): inactive: 3.06%.
With `C=CCSc1nc(-c2ccc(OC)cc2)c(C#N)c(=O)n1CC=C` the figure was inactive: 2.69%; with `c1ccc2cc(Sc3ncnc4c3oc3ccccc34)ccc2c1`, inactive: 17.3%.
As to `COc1ccc(-c2ccc(-c3noc(C4CCCCC4)n3)c(OC)n2)cc1`, the max inhibition was inactive: 3.89% [at 50 µM].
The same measure for `Cc1ccc(NS(=O)(=O)c2ccc(C3CCCCC3)cc2)cc1`: inactive: 7.85%; for `CCCSC1=N/C(=C/c2ccsc2)C(=O)N1c1ccccc1`: inactive: 4.13%; for `CCOc1ccc(/C=C2/SC(=S)N(C(C(=O)O)c3ccccc3)C2=O)cc1OCC` (stereo not drawn): inactive: 3.65%.
The same measure for `CCOC(=O)C1=C(c2ccccc2)N=c2s/c(=C\c3cc(OC)c(OC)c(OC)c3)c(=O)n2C1c1cccs1` (stereo not drawn): inactive: 14.2%; for `O=C(Nc1ccc(Cl)c([N+](=O)[O-])c1)C(Sc1ccccc1)c1ccccc1` (stereo not drawn): inactive: 1.17% [at 0.782 µM].
The same measure for `Cc1ccccc1N/C(SCc1ccc(Cl)cc1)=C(/C#N)C(=O)NCc1ccco1`: inactive: 1.63% [at 25 µM].
With `COc1cccc(N/C(SCc2ccccc2Cl)=C(/C#N)C(=O)NCc2cccs2)c1`, the max inhibition was inactive: 2.47%.
With `COc1cccc(-c2cc(C(F)(F)F)nc(N3CCN(c4ccccc4)CC3)n2)c1` the figure was inactive: 3.29%; with `Cc1ccc(NC(=O)COc2ccc(-n3ccnc3)cc2)cc1Cl`, inactive: 1.34% [at 0.196 µM]; with `CCSC1=N/C(=C/c2ccsc2)C(=O)N1c1ccccc1`, inactive: 3.18%.
The same measure for `O=C(/C=C/c1ccc(-c2ccccc2[N+](=O)[O-])o1)c1ccccc1`: inactive: 5.8% [at 25 µM]; for `Cc1ccc(-c2nc3cccnc3s2)cc1NS(=O)(=O)c1ccc2c(c1)OCCO2`: inactive: 8.35%; for `Cc1[nH]n(-c2ncc(-c3ccccc3)s2)c(=O)c1C(c1ccc(Cl)cc1)C(C#N)C#N` (stereo not drawn): inactive: 5.53%.
As to `O=C(O)CCCCn1c(SCc2ccccc2Cl)nc2ccsc2c1=O`, the max inhibition was inactive: 2.82% [at 0.391 µM].
Regarding `CC(C)CCOc1ncnc2c1sc1nc3c(cc12)CSC(C)(C)C3`, the max inhibition is inactive: 3.77% [at 50 µM].
Take `CCOc1ccc(/C=C/C(O)=C2/C(=O)N(C)C3(C)CC2c2ccccc2O3)cc1OC` (stereo not drawn): the max inhibition was inactive: 2.07% [at 0.391 µM].
For the molecule `COc1ccccc1N(CC(O)COc1c(C)cc(C)cc1C)S(=O)(=O)c1ccccc1` (stereo not drawn), the max inhibition is inactive: 2.68% [at 0.391 µM].
For `C=CCNC(=O)c1ccc2c(c1)nnn2C`, the max inhibition was inactive: 2.62% [at 25 µM].
`CN(C)S(=O)(=O)N1CCC(c2ccc(F)cc2)C(COc2ccc3c(c2)OCO3)C1` (stereo not drawn): the max inhibition was inactive: 2.55% [at 50 µM].
With `CC(C)=CCCC1(C)C=Cc2c(ccc3c2[nH]c2cc(O)c(C)cc23)O1` (stereo not drawn) the figure was inactive: 4.59%.
With `CC(C)[C@H](NS(=O)(=O)c1ccccc1)C(=O)OCC(=O)Nc1ccccc1Sc1ccccc1` the figure was inactive: 3.41%.
With `CCCC1S/C(=N/N=C/c2ccc(OC)cc2)N(Cc2ccccc2)C1=O` (stereo not drawn) the figure was inactive: 3.04% [at 50 µM]; with `CCOc1ccccc1NC(=O)C(OC(=O)c1cc(C)oc1C)c1ccccc1` (stereo not drawn), inactive: 4.82%; with `CCCOc1ccc(/C=C/C(=O)Nc2ccc([N+](=O)[O-])cc2)cc1`, inactive: 6.59%.
On to `O=C(c1cnc(-c2ccccc2)s1)c1ccc(Cl)cc1Cl`, for which the max inhibition is inactive: 2.95%.
With `O=C(COC(=O)CCCN1C(=O)c2cccc3cccc(c23)C1=O)Nc1cccc(C(F)(F)F)c1` the figure was inactive: 1.89%.
With `COCCNC(=O)C(c1ccc(F)cc1)N(C(=O)CCC(=O)Nc1nccs1)c1ccc(C)cc1` (stereo not drawn) the figure was inactive: 2.04% [at 3.125 µM]; with `CCOC(=O)c1cc(C#N)c(Oc2ccccc2)nc1-c1ccccc1`, inactive: 4.47%; with `Cc1ccc(S(=O)(=O)n2nc(-c3ccc(Cl)cc3)nc2NCc2ccco2)cc1`, inactive: 2.04% [at 0.196 µM].
The same measure for `COc1ccc(OC)c(-c2cc(C(=O)N3CCc4ccccc4C3)no2)c1`: inactive: 3.18%.
For the molecule `Cc1ccc(C)c(C(=O)COC(=O)CCCC(=O)Nc2cc(C(F)(F)F)ccc2Cl)c1`, the max inhibition is inactive: 3.64% [at 50 µM].
On to `Clc1ccc(-c2csc(Nc3ccccc3)[n+]2Cc2ccco2)c(Cl)c1`, for which the max inhibition was inactive: 2.09% [at 1.563 µM].
On to `O=C(c1ccc(Cl)cc1[N+](=O)[O-])N(Cc1ccccc1)Cc1ccccc1`, for which the max inhibition is inactive: 1.93% [at 12.5 µM].
With `Cc1cccc(N(C)C(=S)Oc2ccc3ccccc3c2)c1` the figure was inactive: 2.55% [at 50 µM]; with `CCN(CC)S(=O)(=O)c1ccc(N2CCOCC2)c(NC(=O)CCC2CCCCC2)c1`, inactive: 1.43% [at 6.25 µM]; with `C=CCn1c(SCC(=O)Nc2ccccc2C)nnc1-c1ccncc1`, inactive: 2.08%.
The same measure for `Cc1ccc(SCCNC(=S)Nc2ccc(C)c(C)c2)cc1`: inactive: 4.41% [at 12.5 µM].
The same measure for `Cc1ccccc1OCC(=O)OCC(=O)c1ccc(OCc2ccccc2)cc1`: inactive: 4.85% [at 50 µM]; for `Cc1ccc2[nH]c(=O)cc(C(=O)OCC(=O)c3ccccc3)c2c1`: inactive: 6.61%.
As for `CCOC(=O)c1cnn(-c2nc(-c3ccc(C)cc3)cs2)c1C(F)(F)F`, the max inhibition was inactive: 1.08% [at 6.25 µM].
Take `Cc1cc(NC(=O)COC(=O)C(Nc2ccc(C(F)(F)F)cc2Cl)C(C)C)no1` (stereo not drawn): the max inhibition is inactive: 3.28% [at 12.5 µM].
The same measure for `O=C(COC(=O)c1ccc(-c2ccccc2)cc1)Nc1ccccc1-c1ccccc1`: inactive: 4.8% [at 50 µM]; for `OCCNc1nc(SCc2ccccc2)nc2sc3c(c12)CCC3`: inactive: 1.56% [at 3.125 µM]; for `Cc1cc(SC(C)C(=O)Nc2ncc(Cl)cc2Cl)nc2ccccc12` (stereo not drawn): inactive: 2.9% [at 25 µM].
Consider `Cc1ccc(S(=O)(=O)N2CCC(=O)N(C(COCc3cccc(C(F)(F)F)c3)C(C)C)CC2)cc1` (stereo not drawn), for which the max inhibition is inactive: 2.65% [at 0.782 µM].
As to `COc1cc(S(=O)(=O)Nc2ccccc2)ccc1N=Cc1c(C)[nH]n(-c2ccc(C)cc2)c1=O`, the max inhibition was inactive: 4.25%.
The same measure for `CCN(CC)c1ccc(C(=O)OCC(=O)Nc2ccccc2-c2ccccc2)cc1`: inactive: 3.81%.
The same measure for `CCCSc1ccc(-c2nn(-c3ccccc3)cc2/C=C(/C#N)C(=O)NCCCOC)cc1`: inactive: 2.38% [at 25 µM].
As for `CCc1nc(Nc2ccc3nccnc3c2)c2oc3ccccc3c2n1`, the max inhibition is inactive: 13.3%.
